Experimental findings from the supplement of paper PMC11732987, “Enantioselective OTUD7B fragment discovery through chemoproteomics screening and high-throughput optimisation” (Communications Chemistry, 2025) are described below.

Sequences of proteins named here, by UniProt entry; tags and fusion partners are left off. A change or cut given only in a name is not applied to a line headed by its entry. Residues count along the entry.
UniProt Q8N201, whole entry, looked up: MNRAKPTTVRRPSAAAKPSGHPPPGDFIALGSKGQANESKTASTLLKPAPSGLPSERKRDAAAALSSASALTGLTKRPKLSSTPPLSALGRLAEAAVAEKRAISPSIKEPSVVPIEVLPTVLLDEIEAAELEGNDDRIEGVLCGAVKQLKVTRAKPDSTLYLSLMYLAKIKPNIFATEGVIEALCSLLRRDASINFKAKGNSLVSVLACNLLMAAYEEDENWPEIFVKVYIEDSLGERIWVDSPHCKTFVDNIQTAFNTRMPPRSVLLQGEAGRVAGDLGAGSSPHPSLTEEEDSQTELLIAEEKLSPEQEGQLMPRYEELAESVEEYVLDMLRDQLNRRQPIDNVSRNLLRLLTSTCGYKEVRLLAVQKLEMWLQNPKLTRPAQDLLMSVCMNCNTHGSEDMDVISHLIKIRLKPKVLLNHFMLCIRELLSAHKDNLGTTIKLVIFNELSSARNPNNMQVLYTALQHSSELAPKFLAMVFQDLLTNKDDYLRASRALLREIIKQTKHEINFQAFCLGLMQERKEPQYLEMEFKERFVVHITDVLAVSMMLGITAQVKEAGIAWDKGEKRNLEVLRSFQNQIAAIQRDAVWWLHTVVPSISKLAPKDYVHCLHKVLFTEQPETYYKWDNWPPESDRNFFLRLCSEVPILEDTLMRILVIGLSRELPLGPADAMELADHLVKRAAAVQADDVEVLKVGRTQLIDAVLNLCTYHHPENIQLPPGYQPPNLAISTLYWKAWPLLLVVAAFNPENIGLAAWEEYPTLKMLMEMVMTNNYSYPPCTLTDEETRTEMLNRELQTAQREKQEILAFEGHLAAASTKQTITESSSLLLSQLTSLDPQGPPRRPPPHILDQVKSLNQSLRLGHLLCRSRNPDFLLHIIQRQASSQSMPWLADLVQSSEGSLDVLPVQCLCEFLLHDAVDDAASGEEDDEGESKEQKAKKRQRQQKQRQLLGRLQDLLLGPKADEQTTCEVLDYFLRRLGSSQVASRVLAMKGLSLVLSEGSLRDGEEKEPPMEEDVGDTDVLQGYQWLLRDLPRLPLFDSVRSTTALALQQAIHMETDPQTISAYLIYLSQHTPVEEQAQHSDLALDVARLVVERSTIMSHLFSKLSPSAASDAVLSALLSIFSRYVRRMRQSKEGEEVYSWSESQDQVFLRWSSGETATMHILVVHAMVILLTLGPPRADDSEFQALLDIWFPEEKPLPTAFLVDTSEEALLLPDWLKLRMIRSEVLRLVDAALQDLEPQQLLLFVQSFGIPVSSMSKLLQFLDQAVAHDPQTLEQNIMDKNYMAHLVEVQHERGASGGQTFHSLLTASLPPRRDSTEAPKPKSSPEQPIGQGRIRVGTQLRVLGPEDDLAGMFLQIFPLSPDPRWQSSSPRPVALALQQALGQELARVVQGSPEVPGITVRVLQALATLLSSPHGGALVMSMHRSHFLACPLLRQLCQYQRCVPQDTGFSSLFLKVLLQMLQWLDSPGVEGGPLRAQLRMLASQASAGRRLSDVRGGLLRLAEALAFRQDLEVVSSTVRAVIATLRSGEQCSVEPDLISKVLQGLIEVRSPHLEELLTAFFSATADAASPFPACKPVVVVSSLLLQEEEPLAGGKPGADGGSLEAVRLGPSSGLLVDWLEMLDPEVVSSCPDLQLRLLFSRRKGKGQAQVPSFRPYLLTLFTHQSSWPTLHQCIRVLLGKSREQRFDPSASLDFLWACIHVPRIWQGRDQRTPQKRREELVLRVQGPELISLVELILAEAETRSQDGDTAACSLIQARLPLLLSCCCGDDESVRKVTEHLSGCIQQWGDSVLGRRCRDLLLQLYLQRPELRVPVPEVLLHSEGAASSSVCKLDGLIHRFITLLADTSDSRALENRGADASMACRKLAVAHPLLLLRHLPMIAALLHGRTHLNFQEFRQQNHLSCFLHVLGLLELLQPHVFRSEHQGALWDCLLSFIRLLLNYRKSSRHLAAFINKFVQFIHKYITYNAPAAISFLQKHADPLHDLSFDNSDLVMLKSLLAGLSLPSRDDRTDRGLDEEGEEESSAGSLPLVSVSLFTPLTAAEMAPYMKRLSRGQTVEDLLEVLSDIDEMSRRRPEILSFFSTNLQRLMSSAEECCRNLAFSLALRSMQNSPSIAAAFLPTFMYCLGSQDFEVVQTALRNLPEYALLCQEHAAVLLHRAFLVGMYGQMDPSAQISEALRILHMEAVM
UniProt Q8NBQ5: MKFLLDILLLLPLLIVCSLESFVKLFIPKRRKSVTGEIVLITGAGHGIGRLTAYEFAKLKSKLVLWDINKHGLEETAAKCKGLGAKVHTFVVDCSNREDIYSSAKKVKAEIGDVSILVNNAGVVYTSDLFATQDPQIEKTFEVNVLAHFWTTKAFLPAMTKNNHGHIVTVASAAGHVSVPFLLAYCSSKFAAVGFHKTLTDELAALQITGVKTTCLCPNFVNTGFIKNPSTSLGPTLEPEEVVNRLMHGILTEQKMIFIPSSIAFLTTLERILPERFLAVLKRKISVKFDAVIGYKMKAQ
UniProt P42858, whole entry, looked up: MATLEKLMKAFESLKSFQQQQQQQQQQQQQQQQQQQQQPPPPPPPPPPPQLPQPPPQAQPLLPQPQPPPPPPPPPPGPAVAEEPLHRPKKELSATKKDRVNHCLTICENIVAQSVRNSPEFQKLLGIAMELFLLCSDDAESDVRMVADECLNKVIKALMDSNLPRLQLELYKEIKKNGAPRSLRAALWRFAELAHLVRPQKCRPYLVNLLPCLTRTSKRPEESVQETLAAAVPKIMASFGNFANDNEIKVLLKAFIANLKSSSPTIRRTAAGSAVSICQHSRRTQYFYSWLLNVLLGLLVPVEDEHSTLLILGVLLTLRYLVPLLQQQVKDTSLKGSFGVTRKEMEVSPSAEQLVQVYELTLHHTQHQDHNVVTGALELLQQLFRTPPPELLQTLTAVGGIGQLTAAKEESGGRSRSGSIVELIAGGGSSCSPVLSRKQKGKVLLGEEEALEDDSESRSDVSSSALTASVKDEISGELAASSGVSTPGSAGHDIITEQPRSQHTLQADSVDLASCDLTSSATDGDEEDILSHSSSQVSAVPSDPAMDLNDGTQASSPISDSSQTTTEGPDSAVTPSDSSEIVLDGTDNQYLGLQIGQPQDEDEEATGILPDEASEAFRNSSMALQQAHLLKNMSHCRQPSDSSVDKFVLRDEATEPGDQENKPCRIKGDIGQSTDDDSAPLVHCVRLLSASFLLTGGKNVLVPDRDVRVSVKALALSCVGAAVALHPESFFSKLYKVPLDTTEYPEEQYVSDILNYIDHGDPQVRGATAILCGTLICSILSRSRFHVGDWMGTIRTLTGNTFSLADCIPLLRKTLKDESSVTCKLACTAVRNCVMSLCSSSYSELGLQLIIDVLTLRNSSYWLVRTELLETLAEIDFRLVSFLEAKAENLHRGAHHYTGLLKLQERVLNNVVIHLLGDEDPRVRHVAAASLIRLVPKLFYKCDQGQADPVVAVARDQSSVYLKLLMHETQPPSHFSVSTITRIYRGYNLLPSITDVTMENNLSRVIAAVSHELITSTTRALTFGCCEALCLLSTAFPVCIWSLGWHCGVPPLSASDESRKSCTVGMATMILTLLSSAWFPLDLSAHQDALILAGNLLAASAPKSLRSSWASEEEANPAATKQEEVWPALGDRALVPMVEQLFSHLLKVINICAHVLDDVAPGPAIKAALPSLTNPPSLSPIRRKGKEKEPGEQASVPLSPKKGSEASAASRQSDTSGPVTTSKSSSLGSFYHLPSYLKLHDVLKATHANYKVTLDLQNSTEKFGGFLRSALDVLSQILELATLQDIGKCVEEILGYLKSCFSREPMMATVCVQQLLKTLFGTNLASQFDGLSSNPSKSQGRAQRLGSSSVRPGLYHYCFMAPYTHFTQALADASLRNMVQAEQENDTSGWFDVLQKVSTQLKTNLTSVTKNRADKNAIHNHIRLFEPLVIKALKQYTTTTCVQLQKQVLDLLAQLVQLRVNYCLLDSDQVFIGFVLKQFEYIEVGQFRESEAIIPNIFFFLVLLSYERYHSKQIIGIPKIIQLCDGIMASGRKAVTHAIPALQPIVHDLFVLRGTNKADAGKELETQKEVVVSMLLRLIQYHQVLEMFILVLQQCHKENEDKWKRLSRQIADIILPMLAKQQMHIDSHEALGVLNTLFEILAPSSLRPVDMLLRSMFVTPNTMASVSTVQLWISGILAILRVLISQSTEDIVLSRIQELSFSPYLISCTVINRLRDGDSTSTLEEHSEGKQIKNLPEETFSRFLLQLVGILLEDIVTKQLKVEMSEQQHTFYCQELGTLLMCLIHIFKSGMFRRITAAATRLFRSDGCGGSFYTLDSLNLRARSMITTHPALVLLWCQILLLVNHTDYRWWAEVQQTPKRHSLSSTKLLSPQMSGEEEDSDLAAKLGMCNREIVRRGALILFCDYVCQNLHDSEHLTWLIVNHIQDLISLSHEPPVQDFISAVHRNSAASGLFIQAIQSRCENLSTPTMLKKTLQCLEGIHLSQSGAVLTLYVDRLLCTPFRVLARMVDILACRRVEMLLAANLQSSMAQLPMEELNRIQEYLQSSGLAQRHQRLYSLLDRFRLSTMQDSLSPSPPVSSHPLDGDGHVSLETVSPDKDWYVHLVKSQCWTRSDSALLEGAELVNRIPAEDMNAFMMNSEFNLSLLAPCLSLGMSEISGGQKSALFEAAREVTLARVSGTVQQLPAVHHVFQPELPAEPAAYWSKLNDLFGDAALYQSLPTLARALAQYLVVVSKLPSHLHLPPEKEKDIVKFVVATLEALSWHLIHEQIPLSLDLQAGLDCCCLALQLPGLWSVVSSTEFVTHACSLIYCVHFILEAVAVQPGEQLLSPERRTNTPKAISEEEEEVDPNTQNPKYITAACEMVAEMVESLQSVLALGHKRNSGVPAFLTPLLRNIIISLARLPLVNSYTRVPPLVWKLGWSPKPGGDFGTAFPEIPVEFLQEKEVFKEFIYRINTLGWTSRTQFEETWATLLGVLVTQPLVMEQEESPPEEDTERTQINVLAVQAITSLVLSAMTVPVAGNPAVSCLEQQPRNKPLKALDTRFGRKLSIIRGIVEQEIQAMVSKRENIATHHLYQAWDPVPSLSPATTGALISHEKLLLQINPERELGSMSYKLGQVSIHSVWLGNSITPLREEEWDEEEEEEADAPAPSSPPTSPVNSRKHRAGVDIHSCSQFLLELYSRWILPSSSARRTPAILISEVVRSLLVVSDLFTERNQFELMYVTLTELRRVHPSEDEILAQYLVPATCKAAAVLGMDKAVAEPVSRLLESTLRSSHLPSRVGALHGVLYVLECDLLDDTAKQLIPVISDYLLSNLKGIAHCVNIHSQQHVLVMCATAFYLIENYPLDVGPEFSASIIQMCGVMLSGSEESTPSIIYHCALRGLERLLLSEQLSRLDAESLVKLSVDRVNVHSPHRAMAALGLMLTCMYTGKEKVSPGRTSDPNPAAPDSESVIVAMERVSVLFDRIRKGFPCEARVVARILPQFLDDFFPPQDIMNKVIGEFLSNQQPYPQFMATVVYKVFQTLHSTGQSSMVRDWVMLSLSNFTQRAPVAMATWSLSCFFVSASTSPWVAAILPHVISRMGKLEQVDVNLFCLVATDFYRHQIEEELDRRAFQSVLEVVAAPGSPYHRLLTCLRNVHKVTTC
UniProt Q8IU81: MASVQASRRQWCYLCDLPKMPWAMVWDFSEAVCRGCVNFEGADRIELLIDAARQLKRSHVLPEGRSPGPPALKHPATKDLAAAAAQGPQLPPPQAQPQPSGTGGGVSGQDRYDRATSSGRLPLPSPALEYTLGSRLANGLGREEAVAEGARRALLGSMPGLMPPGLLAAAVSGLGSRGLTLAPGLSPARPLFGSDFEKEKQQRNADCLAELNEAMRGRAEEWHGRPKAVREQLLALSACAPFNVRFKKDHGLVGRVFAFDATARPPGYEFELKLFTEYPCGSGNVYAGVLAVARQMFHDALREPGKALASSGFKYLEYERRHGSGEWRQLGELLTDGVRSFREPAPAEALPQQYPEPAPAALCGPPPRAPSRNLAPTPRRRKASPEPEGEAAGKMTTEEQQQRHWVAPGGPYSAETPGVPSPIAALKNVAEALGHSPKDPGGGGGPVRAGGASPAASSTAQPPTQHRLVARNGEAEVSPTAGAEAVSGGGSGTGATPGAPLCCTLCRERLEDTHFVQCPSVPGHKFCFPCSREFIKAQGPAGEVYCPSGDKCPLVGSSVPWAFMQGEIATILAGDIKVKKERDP
UniProt Q9H0C8, 119-144: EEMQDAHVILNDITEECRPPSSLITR

Some of the results follow. The data scatter; read single values as rough.

Compound in the assay: ClCC(=O)N[C@H]1CCCc2ccccc12
Nature of the assay: log2 mean competition ratio of IA-DTB cysteine labelling (DMSO/compound) (log2 ratio); higher = stronger cysteine engagement by compound. Conditions: 200 µM; treatment time: 4 h; cell line lysate: HEK293T. On the procedure:
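IA-DTB competitive cysteine chemoproteomics in HEK293T RIPA lysate. Lysates were treated with compound 29 or 30 at 50 or 200 µM for 4 h, then IA-DTB (500 µM, 1 h), trypsin-digested, NeutrAvidin-enriched and analysed by diaPASEF. Competition ratio = intensity DMSO / intensity compound (n=4 treated, n=64 DMSO); binding: mean log2 CR ≥ 1 and p ≤ 0.05 plus QC filters. Target is the cysteine site.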
IGHMBP2 C897 (UniProt P38935): the “log2 mean competition ratio” value came out at 0.00909.
Regarding INTS1 C1866 (UniProt Q8N201), the “log2 mean competition ratio” value worked out at 0.244.
As for ICE1 C904 (UniProt Q9Y2F5), the figure is 0.192.
To HSD17B11 C94 (UniProt Q8NBQ5) belongs 0.159; to IGF2R C1042 (UniProt P11717), 0.107; to HTT C1998 (UniProt P42858), -0.035.
As to IPO9 C864 (UniProt Q96P70), the “log2 mean competition ratio” value came out at 0.0188.
In the case of HUWE1 C3213, the “log2 mean competition ratio” value was -0.212.
To HPS6 C408 (UniProt Q86YV9) belongs -0.166; to HUWE1 C467, 0.189; to IRF2BP1 C546 (UniProt Q8IU81), -0.216.
As for ILKAP C135 (UniProt Q9H0C8), the figure is -0.364; as for HTT C823 (UniProt P42858), 0.276; as for IQGAP2 C276 (UniProt Q13576), -0.287.
